Changes are numbered by the printed parent chain. These are yes or no findings as the source states them, for the method shown. Some results given as binding are weak or reduced against the parent protein; the word gives no strength.
B1: ISOP121AR5P1G6 (designed binder, not shown: small tags and cut ends)
chain: LPAPKNLVVSRVTEDSARLSWHATFGDPFDSFLIQYQESEKVGEAIVLTVPGSERSYDLTGLKPGTEYTVSIYGVGRHYTVYDSNPLSAIFTT
notes: FN3 domain; E. coli lysate in the ELISA
B2: ISOP194AR9P1C3 (designed binder, not shown: small tags and cut ends)
chain: LPAPKNLVVSRVTQNSARLSWEWLEHFDSFLIHYQESEKVGEAIVLTVPGSERSYDLTGLKPGTEYTVSIYGVYQRKVEFHSNPLSAIFTT
notes: as for B1
B3: ISOP194AR9P1H9 (designed binder, not shown: small tags and cut ends)
chain: B2 chain with Q14E, N15D, L31Q, H33Q
notes: as for B1
B4: ISOP121BR5P1F7 (designed binder, not shown: small tags and cut ends)
chain: LPAPKNLVVSRVTEDSARLSWHDATWQYFDSFLIQYQESEKVGEAIVLTVPGSERSYDLTGLKPGTEYTVSIYGVFHRKHIDFVSNPLSAIFTT
notes: as for B1
B5: ISOP121BR5P1A6 (designed binder, not shown: small tags and cut ends)
chain: LPAPKNLVVSRVTEDSARLSWASWLVAFFDSFLIQYQESEKVGEAIVLTVPGSERSYDLTGLKPGTEYTVSIYGVYQRHASAFVSNPLSAIFTT
notes: as for B1
B6: ISOP121AR5P1E7 (designed binder, not shown: small tags and cut ends)
chain: LPAPKNLVVSRVTEDSARLSWHVYHEIDYFDSFLIQYQESEKVGEAIVLTVPGSERSYDLTGLKPGTEYTVSIYGVYQRKVEFYSNPLSAIFTT
notes: as for B1
B7: ISOP121AR5P1A10 (designed binder, not shown: small tags and cut ends)
chain: LPAPKNLVVSRVTEDSARLSWPDWSNSEYFDSFLIQYQESEKVGEAIVLTVPGSERSYDLTGLKPGTEYTVSIYGVYARHRLFVSNPLSAIFTT
notes: as for B1
B8: ISOP121BR5P1C5 (designed binder, not shown: small tags and cut ends)
chain: LPAPKNLVVSRVTEDSARLSWFRLRIVQTFDSFLIQYQESEKVGEAIVLTVPGSERSYDLTGLKPGTEYTVSIYGVITVVELLQQSNPLSAIFTT
notes: as for B1
B9: ISOP121BR5P1D7 (designed binder, not shown: small tags and cut ends)
chain: LPAPKNLGCFSRYRRLSRLSWETPYPSLSNFDSFLIQYQESEKVGEAIVLTVPGSERSYDLTGLKPGTEYTVSIYGVLKLSAAWWPSNPLSAIFTT
notes: as for B1

Sequences of proteins named here, by UniProt entry; tags and fusion partners are left off. A change or cut given only in a name is not applied to a line headed by its entry.
UniProt Q9NZQ7: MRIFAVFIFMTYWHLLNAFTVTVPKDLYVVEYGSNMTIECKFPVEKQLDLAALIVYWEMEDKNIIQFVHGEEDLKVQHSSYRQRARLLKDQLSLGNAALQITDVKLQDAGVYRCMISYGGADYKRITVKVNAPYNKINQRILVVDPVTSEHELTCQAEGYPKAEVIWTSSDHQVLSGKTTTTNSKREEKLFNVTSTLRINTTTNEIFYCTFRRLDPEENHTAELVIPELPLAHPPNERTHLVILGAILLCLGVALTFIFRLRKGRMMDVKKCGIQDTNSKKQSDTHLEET

Target: recombinant biotinylated PD-L1 (rhPD-L1/Fc Chimera, R&D Systems 156-B7) (human) (UniProt Q9NZQ7)
Assay: ELISA, lysate on plate-bound antigen

binding, binds:
B1
B2
B3
B4
B5
B6
B7
B8
B9

— patent US20180162928A1 (Janssen / Centocor, published 2018)
